In article PMC11617674, “The activity of the ribonucleotide monophosphatase UmpH is controlled by interaction with the GlnK signaling protein in Escherichia coli” (The Journal of Biological Chemistry, 2024) one finds binding data, which are given here for two molecules.

The chains behind the UniProt entries cited, without tags or fusion partners.
UniProt P0A9Z1: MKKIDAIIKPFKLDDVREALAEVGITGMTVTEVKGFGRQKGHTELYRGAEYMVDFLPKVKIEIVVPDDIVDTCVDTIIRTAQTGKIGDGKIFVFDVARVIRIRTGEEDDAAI
UniProt P0AC55: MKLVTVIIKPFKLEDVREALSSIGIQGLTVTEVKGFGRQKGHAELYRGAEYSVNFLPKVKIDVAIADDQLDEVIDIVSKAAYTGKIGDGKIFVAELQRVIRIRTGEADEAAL

The target in experiment [1] is His-GlnB (E. coli PII signaling protein GlnB, N-terminal His tag) (E. coli) (UniProt P0A9Z1). The experiment in a line: affinity purification with mass spectrometry; ligand fishing: His-GlnK or His-GlnB held on Ni-IDA columns, loaded with cell-free extract of E. coli FT8000 ΔglnBglnK in 50 mM Tris-HCl pH 8, 0.1 M KCl, 20 mM imidazole, 5 mM MgCl2, 1 mM ATP; eluted with 1 mM ATP + 1.5 mM 2-OG; SDS-PAGE, MALDI-TOF and label-free LC/MS/MS; only the target purified.

The target in experiment [2] is His-GlnK (E. coli PII signaling protein GlnK, N-terminal His tag) (E. coli) (UniProt P0AC55). Described as above.

Results are given in words; binding and its absence hold for the method and conditions named. Binding seen in cells or lysates may run through a third protein. A yes stands for co-enrichment or nearness to the bait. Other partners may have been found. For some assays here: No binding means not detected with the bait.

B1: UmpH, endogenous in E. coli cell-free extract (enzyme, UniProt P0AF24 1-250)
chain: MTIKNVICDIDGVLMHDNVAVPGAAEFLHGIMDKGLPLVLLTNYPSQTGQDLANRFATAGVDVPDSVFYTSAMATADFLRRQEGKKAYVVGEGALIHELYKAGFTITDVNPDFVIVGETRSYNWDMMHKAAYFVANGARFIATNPDTHGRGFYPACGALCAGIEKISGRKPFYVGKPSPWIIRAALNKMQAHSEETVIVGDNLRTDILAGFQAGLETILVLSGVSSLDDIDSMPFRPSWIYPSVAEIDVI
Consider B1, for which the binding entry in experiment [1] is “no binding”.

B2: GlnE, endogenous in E. coli cell-free extract (enzyme, UniProt P30870 1-946)
chain: MKPLSSPLQQYWQTVVERLPEPLAEESLSAQAKSVLTFSDFVQDSVIAHPEWLTELESQPPQADEWQHYAAWLQEALCNVSDEAGLMRELRLFRRRIMVRIAWAQTLALVTEESILQQLSYLAETLIVAARDWLYDACCREWGTPCNAQGEAQPLLILGMGKLGGGELNFSSDIDLIFAWPEHGCTQGGRRELDNAQFFTRMGQRLIKVLDQPTQDGFVYRVDMRLRPFGESGPLVLSFAALEDYYQEQGRDWERYAMVKARIMGDSEGVYANELRAMLRPFVFRRYIDFSVIQSLRNMKGMIAREVRRRGLTDNIKLGAGGIREIEFIVQVFQLIRGGREPSLQSRSLLPTLSAIAELHLLSENDAEQLRVAYLFLRRLENLLQSINDEQTQTLPSDELNRARLAWAMDFADWPQLTGALTAHMTNVRRVFNELIGDDESETQEESLSEQWRELWQDALQEDDTTPVLAHLSEDDRKQVLTLIADFRKELDKRTIGPRGRQVLDHLMPHLLSDVCAREDAAVTLSRITALLVGIVTRTTYLELLSEFPAALKHLISLCAASPMIASQLARYPLLLDELLDPNTLYQPTATDAYRDELRQYLLRVPEDDEEQQLEALRQFKQAQLLRIAAADIAGTLPVMKVSDHLTWLAEAMIDAVVQQAWVQMVARYGKPNHLNEREGRGFAVVGYGKLGGWELGYSSDLDLIFLHDCPMDAMTDGEREIDGRQFYLRLAQRIMHLFSTRTSSGILYEVDARLRPSGAAGMLVTSAEAFADYQKNEAWTWEHQALVRARVVYGDPQLTAHFDAVRREIMTLPREGKTLQTEVREMREKMRAHLGNKHRDRFDIKADEGGITDIEFITQYLVLRYAHEKPKLTRWSDNVRILELLAQNDIMEEQEAMALTRAYTTLRDELHHLALQELPGHVSEDCFTAERELVRASWQKWLVEE
For B2, the binding entry in experiment [2] was “binds”.
